Measured values from PMC3333781, “Systematic mapping of two component response regulators to gene targets in a model sulfate reducing bacterium”.
Where a protein sequence is shown, tags need not be part of it. For part of these data: Construct, isoform or probe ends are uncertain for at least one entry.

How the values were obtained:
Experiment in all cases: EMSA
[1] = target: T1, DVU2394 response regulator (Desulfovibrio vulgaris Hildenborough) (UniProt Q729F7); details: 10 mM Tris-HCl pH 7.5, 1 mM DTT, 50 mM KCl, 5 mM MgCl2, 25% glycerol, 1 ug/ml poly dI-dC, 50-100 fmol biotinylated DNA, 25-30 C, 20 min; recombinant protein; protein details: C-terminal V5-6xHis; label: 5'-biotin top strand
T1 sequence (looked up, limits assumed): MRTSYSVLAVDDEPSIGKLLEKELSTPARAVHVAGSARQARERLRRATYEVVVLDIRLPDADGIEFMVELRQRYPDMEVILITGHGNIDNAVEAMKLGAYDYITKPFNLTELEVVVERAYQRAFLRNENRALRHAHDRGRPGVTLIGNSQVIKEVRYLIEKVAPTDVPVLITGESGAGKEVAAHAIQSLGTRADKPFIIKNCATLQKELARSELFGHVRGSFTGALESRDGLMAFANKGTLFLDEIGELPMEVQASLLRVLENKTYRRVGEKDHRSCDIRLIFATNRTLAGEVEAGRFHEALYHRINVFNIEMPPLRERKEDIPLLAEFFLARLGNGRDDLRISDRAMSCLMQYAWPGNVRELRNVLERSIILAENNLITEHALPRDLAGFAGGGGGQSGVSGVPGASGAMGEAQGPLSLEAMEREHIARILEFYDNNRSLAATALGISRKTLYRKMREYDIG

[2] = target: T2, DVU3381 response regulator (Desulfovibrio vulgaris Hildenborough) (UniProt Q725P3); details: 10 mM Tris-HCl pH 7.5, 1 mM DTT, 50 mM KCl, 5 mM MgCl2, 25% glycerol, 1 ug/ml poly dI-dC, 50-100 fmol biotinylated DNA, 25-30 C, 20 min; recombinant protein; protein details: C-terminal V5-6xHis; label: 5'-biotin top strand
T2 sequence (looked up, limits assumed): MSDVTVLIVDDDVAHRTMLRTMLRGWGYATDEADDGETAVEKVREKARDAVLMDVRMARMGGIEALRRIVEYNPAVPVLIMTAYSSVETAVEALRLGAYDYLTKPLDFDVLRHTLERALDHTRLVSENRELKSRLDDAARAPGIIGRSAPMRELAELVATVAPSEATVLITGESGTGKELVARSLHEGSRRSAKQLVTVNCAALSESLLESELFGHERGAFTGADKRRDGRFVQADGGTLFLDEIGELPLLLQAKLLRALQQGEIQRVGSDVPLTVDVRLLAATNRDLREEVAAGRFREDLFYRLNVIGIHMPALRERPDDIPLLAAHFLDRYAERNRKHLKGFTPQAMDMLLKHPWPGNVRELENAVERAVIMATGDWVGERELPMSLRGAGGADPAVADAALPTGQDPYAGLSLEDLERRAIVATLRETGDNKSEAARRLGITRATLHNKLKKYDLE

[3] = target: T3, DVU3305 response regulator (Desulfovibrio vulgaris Hildenborough) (UniProt Q725X0); details: 10 mM Tris-HCl pH 7.5, 1 mM DTT, 50 mM KCl, 5 mM MgCl2, 25% glycerol, 1 ug/ml poly dI-dC, 50-100 fmol biotinylated DNA, 25-30 C, 20 min; recombinant protein; protein details: C-terminal V5-6xHis; label: 5'-biotin top strand
T3 sequence (looked up, limits assumed): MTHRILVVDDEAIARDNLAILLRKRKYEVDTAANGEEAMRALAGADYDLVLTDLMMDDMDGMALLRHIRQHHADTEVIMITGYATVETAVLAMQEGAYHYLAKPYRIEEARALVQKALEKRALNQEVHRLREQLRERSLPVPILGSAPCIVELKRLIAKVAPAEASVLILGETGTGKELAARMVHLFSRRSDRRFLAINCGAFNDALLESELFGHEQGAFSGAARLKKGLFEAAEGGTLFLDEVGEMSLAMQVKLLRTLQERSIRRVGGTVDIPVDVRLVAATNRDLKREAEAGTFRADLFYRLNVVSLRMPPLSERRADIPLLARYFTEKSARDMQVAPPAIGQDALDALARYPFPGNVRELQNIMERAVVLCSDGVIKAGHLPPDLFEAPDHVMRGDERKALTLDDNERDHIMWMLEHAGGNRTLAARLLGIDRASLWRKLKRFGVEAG

[4] = target: T4, DVU1083 response regulator (PhoB) (Desulfovibrio vulgaris Hildenborough) (UniProt Q72D47); details: 10 mM Tris-HCl pH 7.5, 1 mM DTT, 50 mM KCl, 5 mM MgCl2, 25% glycerol, 1 ug/ml poly dI-dC, 50-100 fmol biotinylated DNA, 25-30 C, 20 min; recombinant protein; protein details: C-terminal V5-6xHis; label: 5'-biotin top strand
T4 sequence (looked up, limits assumed): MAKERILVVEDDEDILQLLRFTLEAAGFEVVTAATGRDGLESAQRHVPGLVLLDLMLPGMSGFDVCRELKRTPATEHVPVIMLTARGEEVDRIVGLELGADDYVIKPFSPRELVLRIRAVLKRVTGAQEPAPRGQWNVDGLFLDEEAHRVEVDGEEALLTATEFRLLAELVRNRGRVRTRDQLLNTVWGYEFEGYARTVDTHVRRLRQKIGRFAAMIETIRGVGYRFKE

[5] = target: T5, DVU0804 response regulator (Desulfovibrio vulgaris Hildenborough) (UniProt Q72DX5); details: 10 mM Tris-HCl pH 7.5, 1 mM DTT, 50 mM KCl, 5 mM MgCl2, 25% glycerol, 1 ug/ml poly dI-dC, 50-100 fmol biotinylated DNA, 25-30 C, 20 min; recombinant protein; protein details: C-terminal V5-6xHis; label: 5'-biotin top strand; letters put together from the description
T5 sequence (looked up, limits assumed): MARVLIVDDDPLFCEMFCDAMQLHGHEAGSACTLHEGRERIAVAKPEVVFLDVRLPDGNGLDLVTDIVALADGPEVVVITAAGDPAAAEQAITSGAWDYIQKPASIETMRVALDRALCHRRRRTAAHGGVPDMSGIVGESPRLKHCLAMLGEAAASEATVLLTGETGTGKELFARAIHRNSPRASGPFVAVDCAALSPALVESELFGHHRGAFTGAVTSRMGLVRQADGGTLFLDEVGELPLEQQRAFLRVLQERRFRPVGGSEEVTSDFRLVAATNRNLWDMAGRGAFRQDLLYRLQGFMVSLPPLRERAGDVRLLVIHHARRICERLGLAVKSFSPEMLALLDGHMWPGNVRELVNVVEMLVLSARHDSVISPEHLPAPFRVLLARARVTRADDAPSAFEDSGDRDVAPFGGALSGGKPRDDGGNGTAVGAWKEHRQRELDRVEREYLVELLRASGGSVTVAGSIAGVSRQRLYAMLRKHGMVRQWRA

[6] = target: T6, DVU2588 response regulator (Desulfovibrio vulgaris Hildenborough) (UniProt Q728L5); details: 10 mM Tris-HCl pH 7.5, 1 mM DTT, 50 mM KCl, 5 mM MgCl2, 25% glycerol, 1 ug/ml poly dI-dC, 50-100 fmol biotinylated DNA, 25-30 C, 20 min; recombinant protein; residues 1-226; protein details: C-terminal V5-6xHis; label: 5'-biotin top strand
T6 sequence (looked up): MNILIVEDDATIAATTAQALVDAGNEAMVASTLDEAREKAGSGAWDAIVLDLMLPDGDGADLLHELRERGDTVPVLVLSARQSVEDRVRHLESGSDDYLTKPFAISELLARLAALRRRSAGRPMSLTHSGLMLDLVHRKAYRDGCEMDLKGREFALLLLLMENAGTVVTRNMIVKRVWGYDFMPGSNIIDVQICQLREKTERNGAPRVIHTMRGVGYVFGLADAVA

TCCAGCCATCTATGTTTTTTCTGGCATATGTGGCATTTCGACCCAA (double strand) [DVU2405 motif wt]
binding result [1]: binds

CACGAATGGAGTATATTTTTTATACACCCATACAC (double strand) [DVU3384 motif wt]
binding result [2]: binds

AAAGCCTCGTGTTGCGATATGCAACACGAGGCCAC (double strand) [DVU3303 motif wt]
binding result [3]: binds

GTTGTAAAATGTCACACGGTTGTAACCGCTCTTCCA (double strand) [DVU1083 motif wt]
binding result [4]: binds

TTATTCTGTAAACTTTTTATTTACAAAATGACATC (double strand) [DVU0805 upstream binding-site substrate (35 bp)]
binding result [5]: binds

CGTCCTGCACATTAACATTCTTTAATTAAAAGCTGT (double strand) [DVU0943 DVU2588-motif wt]
binding result [6]: binds
